Our source for the binding values is publication PMC4860845.

The chains behind the UniProt entries cited, without tags or fusion partners. Residues count along the entry.
UniProt P63166, residues 1-97: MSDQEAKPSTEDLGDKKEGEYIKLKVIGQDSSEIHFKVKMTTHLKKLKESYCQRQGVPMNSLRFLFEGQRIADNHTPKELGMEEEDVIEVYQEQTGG
UniProt A2AKX3: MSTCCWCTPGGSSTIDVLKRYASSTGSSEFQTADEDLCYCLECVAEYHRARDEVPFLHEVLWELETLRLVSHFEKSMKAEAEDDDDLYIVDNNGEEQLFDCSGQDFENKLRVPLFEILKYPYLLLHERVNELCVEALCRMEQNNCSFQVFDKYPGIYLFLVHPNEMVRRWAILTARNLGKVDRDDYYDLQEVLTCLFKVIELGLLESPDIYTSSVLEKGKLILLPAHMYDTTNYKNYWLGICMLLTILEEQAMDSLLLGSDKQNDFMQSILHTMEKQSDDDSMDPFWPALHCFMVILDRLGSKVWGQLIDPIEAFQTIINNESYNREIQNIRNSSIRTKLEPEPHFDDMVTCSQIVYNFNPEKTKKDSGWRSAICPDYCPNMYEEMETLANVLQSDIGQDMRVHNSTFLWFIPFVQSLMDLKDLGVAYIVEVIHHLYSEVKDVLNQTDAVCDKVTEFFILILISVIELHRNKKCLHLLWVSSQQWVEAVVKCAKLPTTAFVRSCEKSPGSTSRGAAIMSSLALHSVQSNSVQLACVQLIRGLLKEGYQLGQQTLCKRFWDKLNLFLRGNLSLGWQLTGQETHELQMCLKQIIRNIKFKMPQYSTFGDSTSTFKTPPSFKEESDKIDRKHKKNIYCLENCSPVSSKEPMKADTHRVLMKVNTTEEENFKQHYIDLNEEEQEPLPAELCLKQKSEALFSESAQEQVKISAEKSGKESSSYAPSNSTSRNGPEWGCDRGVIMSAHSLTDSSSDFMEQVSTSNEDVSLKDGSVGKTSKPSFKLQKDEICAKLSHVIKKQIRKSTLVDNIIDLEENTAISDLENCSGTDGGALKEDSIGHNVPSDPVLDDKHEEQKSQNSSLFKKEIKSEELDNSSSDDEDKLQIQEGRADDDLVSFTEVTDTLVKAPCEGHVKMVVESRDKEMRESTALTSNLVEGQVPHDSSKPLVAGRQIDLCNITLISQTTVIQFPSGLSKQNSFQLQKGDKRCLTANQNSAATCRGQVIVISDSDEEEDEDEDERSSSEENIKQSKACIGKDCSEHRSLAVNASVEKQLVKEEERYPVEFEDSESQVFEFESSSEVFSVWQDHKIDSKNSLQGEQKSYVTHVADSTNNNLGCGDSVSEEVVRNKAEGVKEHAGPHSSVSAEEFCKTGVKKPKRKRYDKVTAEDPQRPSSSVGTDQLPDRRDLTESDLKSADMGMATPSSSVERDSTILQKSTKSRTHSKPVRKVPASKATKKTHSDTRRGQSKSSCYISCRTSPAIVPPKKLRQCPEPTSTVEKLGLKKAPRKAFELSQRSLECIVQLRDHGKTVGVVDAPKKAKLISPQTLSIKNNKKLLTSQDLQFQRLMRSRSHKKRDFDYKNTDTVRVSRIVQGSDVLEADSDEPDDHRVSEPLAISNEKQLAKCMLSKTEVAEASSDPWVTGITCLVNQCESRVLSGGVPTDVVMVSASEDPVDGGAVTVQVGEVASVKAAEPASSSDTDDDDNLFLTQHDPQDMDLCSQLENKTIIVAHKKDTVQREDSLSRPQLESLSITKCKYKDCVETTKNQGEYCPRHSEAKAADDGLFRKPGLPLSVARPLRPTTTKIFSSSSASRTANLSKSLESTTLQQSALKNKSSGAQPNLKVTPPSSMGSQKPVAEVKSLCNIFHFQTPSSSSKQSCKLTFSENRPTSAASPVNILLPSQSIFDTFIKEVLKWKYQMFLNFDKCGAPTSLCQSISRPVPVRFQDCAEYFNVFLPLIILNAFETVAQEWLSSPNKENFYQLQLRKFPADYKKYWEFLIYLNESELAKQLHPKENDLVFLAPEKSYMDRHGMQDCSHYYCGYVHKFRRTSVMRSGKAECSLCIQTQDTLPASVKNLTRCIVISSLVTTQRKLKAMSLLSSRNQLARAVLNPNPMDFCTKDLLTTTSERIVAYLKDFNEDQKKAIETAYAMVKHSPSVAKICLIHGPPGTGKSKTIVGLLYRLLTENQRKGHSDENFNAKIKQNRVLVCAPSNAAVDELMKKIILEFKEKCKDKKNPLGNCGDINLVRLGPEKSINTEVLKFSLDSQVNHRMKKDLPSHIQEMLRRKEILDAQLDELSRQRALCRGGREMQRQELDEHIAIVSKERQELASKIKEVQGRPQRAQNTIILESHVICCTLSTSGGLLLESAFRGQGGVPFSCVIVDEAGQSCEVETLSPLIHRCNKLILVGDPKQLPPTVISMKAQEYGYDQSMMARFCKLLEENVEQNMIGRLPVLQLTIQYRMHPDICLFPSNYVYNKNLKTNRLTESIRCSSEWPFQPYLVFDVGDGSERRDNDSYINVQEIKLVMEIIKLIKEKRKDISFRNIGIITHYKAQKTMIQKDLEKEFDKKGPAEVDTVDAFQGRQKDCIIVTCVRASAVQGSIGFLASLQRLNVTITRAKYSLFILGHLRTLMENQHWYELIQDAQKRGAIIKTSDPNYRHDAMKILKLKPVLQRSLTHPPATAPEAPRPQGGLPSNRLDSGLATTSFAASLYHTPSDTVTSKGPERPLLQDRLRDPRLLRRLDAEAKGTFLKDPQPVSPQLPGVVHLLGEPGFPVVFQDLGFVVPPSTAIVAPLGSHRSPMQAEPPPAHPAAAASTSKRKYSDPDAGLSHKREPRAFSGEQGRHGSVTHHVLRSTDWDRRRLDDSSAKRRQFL
UniProt Q6PDQ2: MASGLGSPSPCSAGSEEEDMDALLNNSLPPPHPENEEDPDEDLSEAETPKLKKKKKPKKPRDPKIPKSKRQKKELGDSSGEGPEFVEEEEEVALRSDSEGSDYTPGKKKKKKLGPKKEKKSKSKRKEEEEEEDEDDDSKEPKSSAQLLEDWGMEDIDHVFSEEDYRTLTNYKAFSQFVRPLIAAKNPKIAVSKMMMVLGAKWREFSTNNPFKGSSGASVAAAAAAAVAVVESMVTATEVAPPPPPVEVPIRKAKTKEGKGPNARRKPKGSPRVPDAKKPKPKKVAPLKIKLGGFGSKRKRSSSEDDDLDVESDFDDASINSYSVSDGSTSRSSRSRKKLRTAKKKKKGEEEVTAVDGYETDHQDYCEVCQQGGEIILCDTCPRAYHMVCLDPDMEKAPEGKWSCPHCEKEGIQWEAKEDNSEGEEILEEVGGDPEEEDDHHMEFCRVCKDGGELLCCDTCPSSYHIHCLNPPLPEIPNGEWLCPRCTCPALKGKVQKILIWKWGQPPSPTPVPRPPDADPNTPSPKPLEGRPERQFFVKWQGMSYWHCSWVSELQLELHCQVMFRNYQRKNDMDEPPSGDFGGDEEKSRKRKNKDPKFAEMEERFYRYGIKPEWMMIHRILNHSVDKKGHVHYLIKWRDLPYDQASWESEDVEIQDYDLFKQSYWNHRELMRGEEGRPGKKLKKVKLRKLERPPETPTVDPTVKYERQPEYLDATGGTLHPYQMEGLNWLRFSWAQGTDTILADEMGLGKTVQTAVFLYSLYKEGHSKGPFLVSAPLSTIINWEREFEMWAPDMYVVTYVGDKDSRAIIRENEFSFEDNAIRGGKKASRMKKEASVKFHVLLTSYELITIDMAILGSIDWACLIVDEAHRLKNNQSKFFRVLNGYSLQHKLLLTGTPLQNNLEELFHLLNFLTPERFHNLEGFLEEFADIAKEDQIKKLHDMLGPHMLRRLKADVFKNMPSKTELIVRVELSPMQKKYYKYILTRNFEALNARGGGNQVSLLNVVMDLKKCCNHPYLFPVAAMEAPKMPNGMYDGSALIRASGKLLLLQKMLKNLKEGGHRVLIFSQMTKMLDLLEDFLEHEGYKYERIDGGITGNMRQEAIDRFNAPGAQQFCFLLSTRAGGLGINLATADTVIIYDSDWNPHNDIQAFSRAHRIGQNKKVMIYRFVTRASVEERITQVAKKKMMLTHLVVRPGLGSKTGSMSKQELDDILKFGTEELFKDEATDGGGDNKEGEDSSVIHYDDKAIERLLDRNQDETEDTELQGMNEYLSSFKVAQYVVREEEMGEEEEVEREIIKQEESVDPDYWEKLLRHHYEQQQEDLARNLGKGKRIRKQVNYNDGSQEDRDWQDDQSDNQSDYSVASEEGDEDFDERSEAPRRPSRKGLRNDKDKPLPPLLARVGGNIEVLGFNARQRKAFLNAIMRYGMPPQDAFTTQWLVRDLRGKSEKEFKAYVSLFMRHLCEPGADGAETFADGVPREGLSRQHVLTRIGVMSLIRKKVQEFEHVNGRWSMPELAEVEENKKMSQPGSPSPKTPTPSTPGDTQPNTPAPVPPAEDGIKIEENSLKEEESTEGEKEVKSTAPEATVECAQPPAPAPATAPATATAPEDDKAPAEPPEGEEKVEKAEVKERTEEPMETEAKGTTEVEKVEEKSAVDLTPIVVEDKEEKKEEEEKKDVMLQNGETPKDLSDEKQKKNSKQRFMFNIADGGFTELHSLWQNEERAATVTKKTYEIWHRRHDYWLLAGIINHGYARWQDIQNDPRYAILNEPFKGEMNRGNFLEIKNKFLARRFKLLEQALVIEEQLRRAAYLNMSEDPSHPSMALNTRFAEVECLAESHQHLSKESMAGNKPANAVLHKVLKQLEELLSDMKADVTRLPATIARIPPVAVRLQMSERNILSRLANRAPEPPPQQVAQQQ

In experiment [1] the target is Small ubiquitin-like modifier 1 (SUMO-1) (mouse (endogenous in testes)) (UniProt P63166). The experiment in a line: co-IP; endogenous proteins from testes extracts of 35-day-old Setx+/+ and Setx-/- mice; lysis buffer 50 mM Tris-HCl pH 7.4, 150 mM NaCl, 0.2% Triton X-100, 0.3% NP-40, with NEM; antibody overnight at 4 °C, protein A beads; immunoblot; nonspecific IgG as control.

The target in experiment [2] is senataxin (mouse (endogenous in testes)) (UniProt A2AKX3). The experiment in a line: proximity ligation; Duolink PLA on fixed Setx+/+ mouse spermatocyte spreads (pachytene stage), endogenous proteins, sheep anti-Setx with rabbit anti-SUMO-1 or rabbit anti-CHD4; control without primary antibody.
Experiment [3] addresses Small ubiquitin-like modifier 1 (SUMO-1) (mouse (endogenous in testes)) (UniProt P63166). The experiment in a line: co-IP; endogenous proteins from testes extracts of 35-day-old Setx+/+ and Setx-/- mice; lysis buffer 50 mM Tris-HCl pH 7.4, 150 mM NaCl, 0.2% Triton X-100, 0.3% NP-40, with NEM; antibody overnight at 4 °C, protein A beads; immunoblot; nonspecific IgG as control. The source holds these as a separate data set.

Where two headings read alike, the source gives them in different places. No constants are given. Whether binding was seen depends on the method and setting. Binding seen in cells or lysates may run through a third protein. Some results given as binding are weak or reduced against the parent protein; the word gives no strength.

Take senataxin (from UniProt A2AKX3 1-2646): the binding result in experiment [1] is listed as “binds”. On to “Chromodomain helicase DNA-binding protein 4 (from UniProt Q6PDQ2 1-1915)”, for which the binding result in experiment [2] is “binds”.

B1: ataxia telangiectasia and Rad3-related protein-interacting partner (protein, UniProt Q8BMG1 1-785)
chain: MAGTPAPNSHRKQSGGLEPFPGLSRSIENPPSKRARSFSETTVPDPEDPFGEHAEFTADDLEELDILASQALSQCPVAPRNLSSAHKVRRLDGLPNSPIRKSREDIPVKDNFELEVLQIQYKELKEKLKAMEEEILIKNGEIKILRDSLRQTESVLEEQKRSHFLLEQEKTQALSEKEKEFSRKLQSLQSELQFKDAEMNELRTKSQSNGRTNKPAAPSVSHVSPRKGSSVVLKSEACSPHVGKTTFPTKESFSANTPLFHPCQTEAGHRFLVGQEVSDNKNHSLGGSLMKQDVQQRILADGWMQRKDAQGSILINLLLKQPLVPGSSLGLCHLLSSCPEVPTGTLLQPPGLSTLPGTSGLRTISSSDGPFSPSALREAQNLAFTGLNLVARTESSHDGDMAGRRVFPLHQLPGAVHLLPLVQFFVGLHCQALQDLAPAKKSGVPGDSATHTSCMSSGVEASPEDSIHGLESFSVASLSVLQNLVCHSGAVVCLLLSGMGTEAAAREGNLVQTCADTTSASREDAHDQDQHPLLKMLLQLMASSSAASGHFQASVLGLCLKVLVKLAENASSDLLPRFSCVFPVLPQCLGSALPLPCVLLAVELLSVLLDHDSLAWQLCSHPEGCLLLRLYMYITSRPDRTASETQWLQLEQEVVWLLAKLSVQSPAPAGIGSDCHCNVEAVRALTVMLHRQWLTVRRAGGPRTHQQKQTIRCLRDTVLLLHSLSQKDKLFTVHCVEVLHQYDQVMPGVSMLIRALPDVTDCEEAALDDLCAAETDLEDSEMDCN
On to B1, for which the binding result in experiment [3] is recorded as “binds”.
